± gives the standard deviation of the averaged measurements. Some of the results follow. Repeats in this data set agree poorly, so a single value says little.

33 compounds from the supplement of paper PMC8866396 can be followed below.

For one assay, the system named is IL-6-GFP PC-9GR. Kind of assay: IL-6-GFP fluorescence relative to DMSO control (fraction of control); higher = more IL-6-GFP expression. The settings on record: compound concentration: 10 uM; treatment time: 48 h. Here is the method:
(§1)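 IL-6-GFP-overexpressing PC-9 and PC-9GR EGFR-mutant lung cancer cells (3000 cells/well, 96-well) were treated for 48 h with each compound of the Selleck L2000 library at 10 uM. IL-6-GFP fluorescence was read on a high-content screening system, and viability by CCK-8 absorbance on a parallel plate set. Each value was normalised as compound well / DMSO control well; two independent replicates.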

The subject of another assay is IL-6-GFP PC-9. The assay is described as above. The settings on record: compound concentration: 10 uM; treatment time: 48 h. Here is the method: as §1

Take `CN1CCC(=C2c3ccccc3C=Cc3ccccc32)CC1.Cl` [Cyproheptadine hydrochloride]: the IL-6-GFP fluorescence is 0.587 ± 0.32 in the assay on IL-6-GFP PC-9GR and 0.939 ± 0.061 with IL-6-GFP PC-9.
For `S=P(N1CC1)(N1CC1)N1CC1` [Thiotepa] the same measures were 0.715 ± 0.21 and 0.835 ± 0.094.
Consider `CCC(=O)NS(=O)(=O)c1ccc(-c2c(-c3ccccc3)noc2C)cc1` [Parecoxib], for which the IL-6-GFP fluorescence was determined as 0.438 ± 0.38 with IL-6-GFP PC-9GR and 1.13 ± 0.16 in the assay with IL-6-GFP PC-9.
For `CN(C)C/C=C/C(=O)Nc1cc2c(Nc3ccc(F)c(Cl)c3)ncnc2cc1OC1CCOC1` (stereo unspecified) [Afatinib (BIBW2992)] the same measures were 1.19 ± 0.13 and 1.12 ± 0.097.
For `O=C(/C=C/c1ccc(O)c(O)c1)OC(Cc1ccc(O)c(O)c1)C(=O)O` (stereo unspecified) [Rosmarinic acid] the same measures were 1.41 ± 0.73 and 1.38 ± 0.52.
On the same counts, the results for `Cc1nc(-c2ccc(OCC(C)C)c(C#N)c2)sc1C(=O)O` [Febuxostat] are 0.59 ± 0.31 and 0.796 ± 0.15.
In the case of `Cc1ccc(C(=O)c2ccc(CC(=O)O)n2C)cc1` [Tolmetin], the values for the IL-6-GFP fluorescence in the assay on IL-6-GFP PC-9GR and in the assay on IL-6-GFP PC-9 were 0.879 ± 0.017 and 0.942 ± 0.12, respectively.
For `C=CC(=O)Nc1cc(Nc2nccc(-c3cn(C)c4ccccc34)n2)c(OC)cc1N(C)CCN(C)C` [Osimertinib (AZD9291)] the same measures were 1.37 ± 0.43 and 1.25 ± 0.022.
On the same counts, the results for `Cn1c(=O)cc(N2CCCC(N)C2)n(Cc2ccccc2C#N)c1=O` (stereo unspecified) [Alogliptin] are 0.799 ± 0.02 and 0.804 ± 0.055.
For the compound `CC(=O)OC(C)C(C)C(=O)OCC12C3CC4(C)C(=CCC5C6(C)CCC(OC7OC(C(=O)[O][Na])C(OC8OC(CO)C(O)C(O)C8O)C(O)C7OC7OCC(O)C(O)C7O)C(C)(CO)C6CCC54C)C1CC(C)(C)C(O3)C2O` (stereo unspecified) [Sodium Aescinate], the figures for the IL-6-GFP fluorescence in the assay on IL-6-GFP PC-9GR and with IL-6-GFP PC-9 were 0.964 ± 0.27 and 0.957 ± 0.12, respectively.
As to `CC1(C)CCC(CN2CCN(c3ccc(C(=O)NS(=O)(=O)c4ccc(NCC5CCOCC5)c([N+](=O)[O-])c4)c(Oc4cnc5[nH]ccc5c4)c3)CC2)=C(c2ccc(Cl)cc2)C1` [Venetoclax (ABT-199, GDC-0199)], the IL-6-GFP fluorescence with IL-6-GFP PC-9GR was 0.804 ± 0.087; in the assay on IL-6-GFP PC-9, 0.84152 ± 0.00068.
For the compound `Nc1nc(=O)c2c([nH]1)NCC(CNc1ccc(C(=O)NC(CCC(=O)[O-])C(=O)[O-])cc1)N2C=O.O.O.O.O.O.[Ca+2]` (stereo unspecified) [Leucovorin Calcium Pentahydrate], the results for the IL-6-GFP fluorescence with IL-6-GFP PC-9GR and in the assay on IL-6-GFP PC-9 were 0.671 ± 0.18 and 0.686 ± 0.032, respectively.
For the compound `Nc1nc(Cl)nc2c1ncn2C1CC(O)C(CO)O1` (stereo unspecified) [Cladribine], the IL-6-GFP fluorescence was 1.09 ± 0.17 in the assay with IL-6-GFP PC-9GR and 1.03 ± 0.091 with IL-6-GFP PC-9.
For `COc1c2ccoc2cc2oc(=O)ccc12` [Bergapten] the same measures were 0.793 ± 0.18 and 0.807 ± 0.31.
For `CN(Cc1cnc2nc(N)nc(N)c2n1)c1ccc(C(=O)NC(CCC(=O)O)C(=O)O)cc1` (stereo unspecified) [Methotrexate] the same measures were 0.997 ± 0.041 and 0.93 ± 0.016.
Turning to `CNC(=O)c1ccc(N2C(=S)N(c3ccc(C#N)c(C(F)(F)F)c3)C(=O)C2(C)C)cc1F` [Enzalutamide (MDV3100)], the IL-6-GFP fluorescence was found to be 1.02 ± 0.04 in the assay on IL-6-GFP PC-9GR and 0.861 ± 0.07 in the assay with IL-6-GFP PC-9.
For `CCC(C(=O)O)c1ccc(N2Cc3ccccc3C2=O)cc1` (stereo unspecified) [Indobufen] the same measures were 0.889 ± 0.088 and 0.798 ± 0.023.
For `COc1cc2c(Nc3ccc(Br)cc3F)ncnc2cc1OCC1CCN(C)CC1` [Vandetanib (ZD6474)] the same measures were 0.413 ± 0.29 and 0.45 ± 0.19.
For `CC1Oc2cc(cnc2N)-c2c(nn(C)c2C#N)CN(C)C(=O)c2ccc(F)cc21` (stereo unspecified) the same measures were 1.01 ± 0.052 and 0.917 ± 0.11.
As for `CCCCCOC(=O)Nc1nc(=O)n(C2OC(C)C(O)C2O)cc1F` (stereo unspecified) [Capecitabine], the IL-6-GFP fluorescence with IL-6-GFP PC-9GR was found to be 1.13 ± 0.026; in the assay with IL-6-GFP PC-9 it was 1.06 ± 0.11.
On the same counts, the results for `NCCNc1ccc(NCCN)c2c1C(=O)c1ccncc1C2=O.O=C(O)/C=C\C(=O)O.O=C(O)/C=C\C(=O)O` [Pixantrone Maleate] are 0.747 ± 0.018 and 0.759 ± 0.07.
Take `CC(=O)Oc1ccccc1C(=O)O` [Aspirin]: the results for the IL-6-GFP fluorescence in the assay with IL-6-GFP PC-9GR and with IL-6-GFP PC-9 were 0.926 ± 0.12 and 0.889 ± 0.26, respectively.
As for `Cl.Clc1ccc(CCCOCCCN2CCCCC2)cc1` [Pitolisant hydrochloride], the IL-6-GFP fluorescence with IL-6-GFP PC-9GR was 0.934 ± 0.011; with IL-6-GFP PC-9, 0.833 ± 0.015.
As to `COc1ccc2cc(C(C)C(=O)O)ccc2c1` (stereo unspecified) [Naproxen], the figures for the IL-6-GFP fluorescence with IL-6-GFP PC-9GR and with IL-6-GFP PC-9 were 1.08 ± 0.32 and 0.812 ± 0.12, respectively.
For `Cc1cc(C(C)(C)C)cc(C)c1CC1=NCCN1` [Xylometazoline] the same measures were 0.879 ± 0.046 and 0.7745 ± 0.0012.
For `Cl.Nc1ccn(C2OC(CO)C(O)C2(F)F)c(=O)n1` (stereo unspecified) [Gemcitabine HCl] the same measures were 0.764 ± 0.091 and 0.741 ± 0.13.
For `CCC(Nc1ncnc2[nH]cnc12)c1nc2cccc(F)c2c(=O)n1-c1ccccc1` (stereo unspecified) [Idelalisib (CAL-101, GS-1101)] the same measures were 0.796 ± 0.34 and 0.996 ± 0.38.
In the case of `CC(=O)OC1CCC2(C)C(CCC3(C)C2C(=O)C=C2C4C(C)C(C)CCC4(C)CCC23C)C1(C)C(=O)O` (stereo unspecified), the IL-6-GFP fluorescence stood at 0.905 ± 0.025 in the assay with IL-6-GFP PC-9GR and 0.881 ± 0.08 in the assay with IL-6-GFP PC-9.
With `COc1ccc(S(=O)(=O)N(C(C)=O)c2ccccc2/C=C/c2cc[n+]([O-])cc2)cc1`, the figures for the IL-6-GFP fluorescence in the assay with IL-6-GFP PC-9GR and in the assay on IL-6-GFP PC-9 were 2.5 ± 0.22 and 2.12 ± 0.18, respectively.
On to `O=c1[nH]cc(F)c(=O)[nH]1` [Fluorouracil (5-Fluoracil, 5-FU)], for which the results for the IL-6-GFP fluorescence in the assay with IL-6-GFP PC-9GR and with IL-6-GFP PC-9 were 1 ± 0.094 and 0.908 ± 0.058, respectively.
For `CC1(C)OC2CC3C4CC(F)C5=CC(=O)C=CC5(C)C4(F)C(O)CC3(C)C2(C(=O)CO)O1` (stereo unspecified) [Fluocinolone Acetonide] the same measures were 0.835 ± 0.14 and 0.905 ± 0.35.
On the same counts, the results for `CC#CC(=O)N1CCCC1c1nc(-c2ccc(C(=O)Nc3ccccn3)cc2)c2c(N)nccn12` (stereo unspecified) [Acalabrutinib (ACP-196)] are 1.61 ± 0.048 and 1.24 ± 0.26.
Take `CCC(C)(Oc1ccc(C2(c3ccc(OC(C)(CC)C(=O)O)cc3)CCCCC2)cc1)C(=O)O` (stereo unspecified) [Clinofibrate]: the IL-6-GFP fluorescence in the assay with IL-6-GFP PC-9GR worked out at 0.929 ± 0.051; with IL-6-GFP PC-9 it was 0.796 ± 0.11.
